From US8212036B2, “Maleate salts of 6-(5-chloro-2-pyridyl)-5-[(4-methyl-1-piperazinyl)carbonyloxy]-7-oxo-6,7-dihydro-5H-pyrrolo[3,4-b]pyrazine” (Sunovion Pharmaceuticals Inc., priority 2007, dated 2012)

Experiment: Open-label taste assessment (Flavor Profile bitterness) in healthy human subjects
Format: in vivo
Conditions: scale 0-3

## CN1CCN(C(=O)O[C@H]2c3nccnc3C(=O)N2c2ccc(Cl)cn2)CC1.O=C(O)/C=C\C(=O)O [Maleate, (S)-Zopiclone Maleate]
0.01 mg/5 mL in water, aftertaste t = 1 minutes
  Human taste bitterness intensity: 1.2
1.0 mg/5 mL in water, aftertaste t = 30 minutes
  Human taste bitterness intensity: 1.2
